# Article PMC3368771
# The chains behind the UniProt entries cited, without tags or fusion partners.
# UniProt O45495: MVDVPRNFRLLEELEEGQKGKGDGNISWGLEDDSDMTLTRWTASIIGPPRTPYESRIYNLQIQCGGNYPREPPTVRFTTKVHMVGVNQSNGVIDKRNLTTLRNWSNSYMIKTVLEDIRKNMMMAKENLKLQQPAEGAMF
# No constants are given. Whether binding was seen depends on the method and setting. Some binding calls cover weakened binding; strength is not graded here.
# B1: UBC-13 (enzyme, UniProt Q95XX0 1-151)
# chain: MAGQLPRRIIKETQRLLADPVPGISANPDESNARYFHVMIAGPDDSPFAGGVFKLELFLPEEYPMAAPKVRFMTKIYHPNIDKLGRICLDILKDKWSPALQIRTVLLSIQALLSAPNPEDPLATDVAEQWKTNEAEAIKTAKQWTMNYAQA
# Target: UEV-1 (C. elegans) (UniProt O45495)
# Experiment: two-hybrid; yeast two-hybrid; unpublished data (S. Utarrala and L.B.), told beside a citation of ref. 58; which protein was bait is not told
binder,measurement,value
B1,binding,binds
